PubChem BioAssay AID652243 | Drosophila RNAi Screening Center – 2013

Test: 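Knock-downs that decrease or increase androgen receptor reporter signal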 (primary screen)
Cell system: Drosophila S2R+ cells
Reagents: long dsRNA against Drosophila genes
Duration: 72 h (48 h, then 24 h hormone)
Treatment: synthetic androgen R1881 at 10 nM for 24 h
Read-out: 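Per-well raw luminescence of the androgen-driven firefly reporter and of the Renilla control, two replicates each, without normalisation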
Direction: firefly reporter light: higher = more light from androgen-responsive reporter; Renilla control light: higher = more constitutive control signal (cell number, transfection)
Call rule: 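Across duplicate plates, a knock-down whose log firefly/Renilla ratio shifted a set fold down or up from the GFP/LacZ control mean was a hit; the downward cut appears as both 1.5 and 3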
Meaning of the calls: active = hit: reporter lowered or raised; inactive = no hit
In all, the deposit lists about 24,000 reagents; this is an unselected part of those with a known target gene and a result. In the full data, 246 (1%) are marked active. 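Plates not normalised; calls are printed but the firefly/Renilla ratio behind them is not deposited; fold cut for lowering reported inconsistently.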 The raw values are shown without normalisation. A plus sign joins genes that one reagent is predicted to hit. Not given: the amount of reagent.

predicted target	DRSC id	firefly reporter light, replicate 1	firefly reporter light, replicate 2	Renilla control light, replicate 1	Renilla control light, replicate 2	call
CG34130 (GeneID 4379866)	DRSC38651	7.41e5	7.62e5	2.03e6	2.48e6	inactive
CG34106 (GeneID 4379891)	DRSC38910	5.85e5	5.47e5	1.95e6	1.63e6	inactive
CG11436 (GeneID 31386)	DRSC17783	1.15e5	62769	6.85e5	4.93e5	inactive
CG13070 (GeneID 39782)	DRSC09953	2.55e5	2.04e5	2.52e6	1.99e6	inactive
CG11964 (GeneID 41068)	DRSC14447	42713	21126	1.89e5	2.39e5	inactive
CG11964 (GeneID 41068)	DRSC25900	3.03e5	2.45e5	8.63e5	7.15e5	inactive
CG9121 (GeneID 33732)	DRSC03142	67954	89419	1.13e6	7.83e5	inactive
CG14763 (GeneID 35757)	DRSC06497	4.54e5	3.78e5	2.66e6	2.52e6	inactive
CG14763 (GeneID 35757)	DRSC25479	1.09e6	1.23e6	6.97e5	8.32e5	inactive
RpS30 (GeneID 42470)	DRSC15119	2.28e5	1.59e5	1.66e6	1.64e6	inactive
RpS30 (GeneID 42470)	DRSC26355	2.66e5	1.79e5	4.19e5	4.26e5	inactive
CG4537 (GeneID 34306)	DRSC02756	2.17e5	2.79e5	1.80e6	1.79e6	inactive
Cyp317a1 (GeneID 36667)	DRSC07366	1.30e5	1.12e5	2.22e6	2.22e6	inactive
CG6023 (GeneID 32814)	DRSC19970	83270	40986	6.65e5	6.74e5	inactive
Cp7Fb (GeneID 31785)	DRSC18034	2.03e5	3.42e5	3.42e6	3.67e6	inactive
Gr59b (GeneID 117484)	DRSC04179	2.88e5	3.00e5	1.97e6	1.89e6	inactive
CG1635 (GeneID 43720)	DRSC15131	93812	67674	6.75e5	4.59e5	inactive
CG1635 (GeneID 43720)	DRSC25487	1.37e6	1.05e6	7.10e5	6.81e5	inactive
SCCRO3 (GeneID 36426)	DRSC06359	1.36e5	1.08e5	1.07e6	1.11e6	inactive
SCCRO3 (GeneID 36426)	DRSC26409	3.40e5	3.43e5	6.38e5	8.18e5	inactive
CG31495 (GeneID 261626)	DRSC16762	1.14e5	1.42e5	2.02e6	2.13e6	inactive
CG31495 (GeneID 261626)	DRSC29177	5.07e5	7.06e5	9.99e5	1.13e6	inactive
Targ1 (GeneID 40340)	DRSC11616	3.43e5	3.49e5	2.75e6	3.17e6	inactive
CG1598 (GeneID 35690)	DRSC06598	1.99e5	1.92e5	1.84e6	1.78e6	inactive
egg (GeneID 37962)	DRSC04119	7.92e5	9.83e5	1.38e6	1.54e6	inactive
egg (GeneID 37962)	DRSC22534	5.49e5	6.30e5	1.56e6	1.31e6	inactive
egg (GeneID 37962)	DRSC28455	4.34e5	1.12e6	1.06e6	1.32e6	inactive
Trpml + CG42638	DRSC11032	25094	30691	3.34e5	2.88e5	inactive
AttB (GeneID 36637)	DRSC06734	26844	88328	7.71e5	7.71e5	inactive
AttB (GeneID 36637)	DRSC28997	4.89e5	4.17e5	1.18e6	8.78e5	inactive
MFS18 (GeneID 33650)	DRSC00452	1.08e6	1.40e6	2.37e6	2.33e6	inactive
CG9547 (GeneID 33911)	DRSC03260	7.00e5	9.57e5	1.43e6	1.40e6	inactive
CG9547 (GeneID 33911)	DRSC27269	2.37e5	2.99e5	5.58e5	5.88e5	inactive
AsnRS (GeneID 35194)	DRSC01990	5.60e5	8.09e5	1.13e6	1.30e6	inactive
CG42709 (GeneID 39453)	DRSC10277	6.40e5	5.13e5	2.10e6	1.97e6	inactive
CG42709 (GeneID 39453)	DRSC25693	8.71e5	9.32e5	1.06e6	1.07e6	inactive
CdGAPr (GeneID 35267)	DRSC03289	78111	1.23e5	1.16e6	1.43e6	inactive
tok (GeneID 42944)	DRSC17087	56207	75921	4.83e5	4.79e5	inactive
tok (GeneID 42944)	DRSC39140	5.02e5	7.19e5	1.36e6	1.57e6	inactive
CG5265 (GeneID 42074)	DRSC15756	1.38e5	1.61e5	2.53e6	2.28e6	inactive
Smyd4-4 (GeneID 36299)	DRSC05956	7.85e5	8.71e5	1.15e6	1.36e6	inactive
Rabex-5 (GeneID 38144)	DRSC08628	7.75e5	1.18e6	1.48e6	2.23e6	inactive
Rabex-5 (GeneID 38144)	DRSC29819	5.98e5	4.12e5	1.50e6	1.25e6	inactive
CG1894 (GeneID 43378)	DRSC15396	1.73e5	1.58e5	2.15e6	2.70e6	inactive
CG34326 (retired record) (GeneID 5740223)	DRSC38794	9.62e5	8.04e5	1.96e6	1.78e6	inactive
CG16824 (GeneID 5740834)	DRSC02525	2.11e5	1.92e5	1.02e6	1.16e6	inactive
Rtnl1 (GeneID 33721)	DRSC00851	1.88e5	1.59e5	4.95e5	5.18e5	inactive
Rtnl1 (GeneID 33721)	DRSC02684	6.00e5	8.24e5	1.62e6	2.59e6	inactive
Rtnl1 (GeneID 33721)	DRSC03122	7.66e5	6.76e5	1.23e6	1.08e6	inactive
Rtnl1 (GeneID 33721)	DRSC21698	8.50e5	7.35e5	2.73e6	2.19e6	inactive
CG2200 (GeneID 32258)	DRSC19840	3.77e5	4.37e5	3.53e6	4.11e6	inactive
Prosbeta5R2 (GeneID 318924)	DRSC01617	2.55e5	2.55e5	6.06e5	6.42e5	inactive
Prosbeta5R2 (GeneID 318924)	DRSC29767	8.55e5	8.67e5	1.85e6	1.95e6	inactive
CG32112 (GeneID 317860)	DRSC09815	1.99e5	2.36e5	1.27e6	2.12e6	inactive
RabGGTa (GeneID 40617)	DRSC12189	59599	38582	4.34e5	2.55e5	inactive
rhea (GeneID 38978)	DRSC11300	1.80e5	1.72e5	2.98e6	2.38e6	inactive
CG9331 (GeneID 35347)	DRSC03206	1.80e6	2.25e6	2.00e6	2.72e6	inactive
CG9331 (GeneID 35347)	DRSC28815	3.91e5	3.69e5	7.44e5	1.23e6	inactive

Just “firefly reporter light, replicate 1”, for 6 of the entries above:
Prosbeta5R2 (GeneID 318924) [DRSC29767]: 8.55e5
CG32112 (GeneID 317860) [DRSC09815]: 1.99e5
RabGGTa (GeneID 40617) [DRSC12189]: 59599
rhea (GeneID 38978) [DRSC11300]: 1.80e5
CG9331 (GeneID 35347) [DRSC03206]: 1.80e6
CG9331 (GeneID 35347) [DRSC28815]: 3.91e5
